PubChem BioAssay AID504784, Drosophila RNAi Screening Center, 2011
The screen tested about 17,000 reagents; below is a random part of those that have a named target and a result. 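Each column is one replicate's B-score; the combined score over replicates was not deposited, so single values may mislead.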 Names joined by + are all predicted targets of the reagent. Reagent sequences are not shown.

Purpose: 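Search for regulators of lipid droplet storage in oleate-fed fly cells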 (primary screen)
Cells: Drosophila Kc167 embryonic cells
Reagent: long dsRNA against Drosophila genes, about 250 ng dsRNA per well
Duration: 4 days
Treatment: cells fed 400 µM oleic acid bound to BSA
Detection: 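Microscope images give a droplet-to-nucleus area ratio, taken as log and converted to a screen-wide B-score; higher values mean greater lipid storage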
Scale: droplet/nuclear area B-score: higher = more stored lipid (overstorage)

Target gene	amplicon	droplet/nuclear area B-score, replicate 1	droplet/nuclear area B-score, replicate 2	droplet/nuclear area B-score, replicate 3
Hpr1	DRSC12296	-0.0739	-0.0128	
sw	DRSC20388	4.28	1.96	
CG9257	DRSC03173	-0.0487	-0.226	
CG11147	DRSC02129	0.45	-2.33	
Usp30	DRSC18265	-0.246	-0.902	
CG2082	DRSC12125	0.652	-0.0913	
CG32269 + CG32270	DRSC08195	-0.516	0.227	
CG32452	DRSC11581	0.112	0.934	
CG32452	DRSC22250	-0.486	1.1	
CG9400	DRSC20182	-0.903	0.126	0.635
Femcoat	DRSC18061	0.874	1.24	
CG10467	DRSC09728	1.18	-0.536	
CG14260	DRSC14755	0.408	-0.725	
schlank	DRSC18102	-1.09	-0.938	
schlank	DRSC18313	0.672	0.0659	
CG10254	DRSC14153	0.352	-0.329	
eIF4E6	DRSC14853	0.749	1.16	
CG11251	DRSC09825	1.57	0.316	
Rif1	DRSC05593	-1.61	0.567	
Rbp6	DRSC10072	-0.00373	0.0472	
Rbp6	DRSC10073	0.0934	-1	
Rbp6	DRSC10662	-3.82	-0.808	
CG9040	DRSC11053	0.919	1.49	
CHOp24	DRSC18310	-0.819		
CG15024	DRSC08478	0.0098	0.635	
Trs20	DRSC10489	-1.78	1.16	
CG6985	DRSC16164	-1.05	0.525	
CG17019	DRSC06642	-0.68	-1.94	
CG31265	DRSC15745	0.798	-0.0227	
CG15429	DRSC00444	-0.951	0.00949	
PGRP-LC	DRSC08980	-0.0548	-0.012	
PGRP-LC	DRSC10416	2.94	2.05	
PGRP-LC	DRSC10417	0.674	-0.703	
niki	DRSC14285	0.746	0.964	
CG18754	DRSC15387	-1.39	0.74	
CG7707	DRSC10903	0.209	0.025	
Hpd	DRSC11670	-0.0902	-0.0681	3.01
CG2187	DRSC15425	-1.02	0.411	
CG7656	DRSC10900	1.27	-1.43	0.347
Eip78C	DRSC11864	1.14	2.82	
Eip78C	DRSC23097	-0.169	-0.178	
Bap55	DRSC07000	-1.23	2.26	
Osi2	DRSC12174	1.84	1.34	
CG14691	DRSC14914	-0.334	-0.578	
eRF1	DRSC11779	-0.029	1.8	0.29
Mi-2	DRSC11222	-0.122	2.73	
CG18210 (retired record)	DRSC19795	1.3	-0.36	-2.01
lky	DRSC20682	0.0533	-0.00349	
CG6753	DRSC16108	-0.235	-1	
CG30393	DRSC04253	-0.704	1.38	
Cyp313a3	DRSC16626	0.0967	-0.277	
CG13331	DRSC06366	1.06	1.77	
BomT3	DRSC15871	0.615	0.901	
Nrg	DRSC17573	-1.24	-1.32	
Nrg	DRSC18688	0.0484	1.89	1.31
Pde1c	DRSC02421	-0.151	0.0417	
Pde1c	DRSC02422	0.0125	-0.971	
Pde1c	DRSC02423	-1.26	1.12	
Pde1c	DRSC02424	3.03	0.161	
Pde1c	DRSC02425	0.969	0.34	
Pde1c	DRSC02426	-1.67	-0.467	

Targets above whose target name begins with E or e:
Target gene	amplicon	droplet/nuclear area B-score, replicate 1	droplet/nuclear area B-score, replicate 2	droplet/nuclear area B-score, replicate 3
eIF4E6	DRSC14853	0.749	1.16	
Eip78C	DRSC11864	1.14	2.82	
Eip78C	DRSC23097	-0.169	-0.178	
eRF1	DRSC11779	-0.029	1.8	0.29
